The values below come from publication doi:10.1101/2022.05.16.492168.

Results are given in words; binding and its absence hold for the method and conditions named. Some entries that bind do so weakly or less than the wild type. Tags and fused reporters may be left off the sequences shown.

For test [1], the target named is T1, DBD-RVE8 (RVE8 in yeast 2-/3-hybrid) (Arabidopsis thaliana) (UniProt Q8RWU3).
T1 sequence: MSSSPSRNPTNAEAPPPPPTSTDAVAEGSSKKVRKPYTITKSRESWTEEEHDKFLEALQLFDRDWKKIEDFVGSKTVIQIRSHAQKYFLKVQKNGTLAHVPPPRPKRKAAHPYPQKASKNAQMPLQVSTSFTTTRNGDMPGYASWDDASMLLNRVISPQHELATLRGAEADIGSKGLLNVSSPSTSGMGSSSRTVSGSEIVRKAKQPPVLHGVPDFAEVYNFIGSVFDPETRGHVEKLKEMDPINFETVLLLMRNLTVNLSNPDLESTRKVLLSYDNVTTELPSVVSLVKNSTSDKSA
In words: two-hybrid.

Test [2] has as its target T2, AD-LNK1 C-term (Arabidopsis thaliana) (UniProt A8MQN2).
T2 sequence: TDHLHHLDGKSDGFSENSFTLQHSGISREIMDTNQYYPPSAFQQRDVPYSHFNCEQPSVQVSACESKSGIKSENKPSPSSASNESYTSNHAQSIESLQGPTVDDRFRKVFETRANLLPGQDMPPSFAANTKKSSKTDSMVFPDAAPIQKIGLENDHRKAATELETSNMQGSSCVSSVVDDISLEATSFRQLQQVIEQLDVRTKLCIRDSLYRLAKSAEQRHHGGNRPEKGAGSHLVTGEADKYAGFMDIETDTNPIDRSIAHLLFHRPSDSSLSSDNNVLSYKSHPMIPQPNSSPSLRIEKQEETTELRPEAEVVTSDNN
In words: two-hybrid.

B1: AD-LNK1 C-term (domain or fragment, UniProt A8MQN2 297-616)
chain: TDHLHHLDGKSDGFSENSFTLQHSGISREIMDTNQYYPPSAFQQRDVPYSHFNCEQPSVQVSACESKSGIKSENKPSPSSASNESYTSNHAQSIESLQGPTVDDRFRKVFETRANLLPGQDMPPSFAANTKKSSKTDSMVFPDAAPIQKIGLENDHRKAATELETSNMQGSSCVSSVVDDISLEATSFRQLQQVIEQLDVRTKLCIRDSLYRLAKSAEQRHHGGNRPEKGAGSHLVTGEADKYAGFMDIETDTNPIDRSIAHLLFHRPSDSSLSSDNNVLSYKSHPMIPQPNSSPSLRIEKQEETTELRPEAEVVTSDNN
For B1, the binding result in test [1] is given as “binds”.

B2: COR28 in yeast 2-/3-hybrid (protein, UniProt Q8L983 1-218)
chain: MENDCTVNIVSLEKDRDVSEASAESQSESTLSNSLDSGVTAETSRSDADSKLDECTAWTNEKHNSYLDYLESSFVRQLYSLLGGGTQRLSRTRDVQSNSHKSADQFTVLQNGCWQKVNFGKKQSCLETSSEFRFHRNSLRNKPENSNGNYTMGTTVQGDVLCHDETKHSEASGQNFREEEEEEEKGEVSKKREREANNDDSSLKEDQVVPVRMVKPRT
With B2, in test [2], the binding entry is given as “no binding”.
